Drugs:
BI-D1870 (0.2 µM): CC(C)CCN1c2nc(Nc3cc(F)c(O)c(F)c3)ncc2N(C)C(=O)C1C (stereo not given)
KU-55933 (1 µM): O=c1cc(-c2cccc3c2Sc2ccccc2S3)oc(N2CCOCC2)c1
IMD-0354 (0.016 µM): O=C(Nc1cc(C(F)(F)F)cc(C(F)(F)F)c1)c1cc(Cl)ccc1O
tozasertib (0.006 µM): Cc1cc(Nc2cc(N3CCN(C)CC3)nc(Sc3ccc(NC(=O)C4CC4)cc3)n2)n[nH]1
AS-252424 (1 µM): O=C1NC(=O)/C(=C/c2ccc(-c3ccc(F)cc3O)o2)S1
vismodegib (1 µM): CS(=O)(=O)c1ccc(C(=O)Nc2ccc(Cl)c(-c3ccccn3)c2)c(Cl)c1
GSK0660 (1 µM): COC(=O)c1sccc1S(=O)(=O)Nc1ccc(Nc2ccccc2)cc1OC
L-779450 (0.2 µM): Oc1cc(-c2nc(-c3ccccc3)[nH]c2-c2ccncc2)ccc1Cl

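Human melanoma cell lines in 1,536-well plates were treated with two drugs together for 72 h, then fixed, stained and imaged. Each value is the count of nuclei relative to DMSO-treated wells, in %, so that 100 equals the control. Concentrations were fixed for each drug; these are the lower of two levels, a fifth of the higher. The file gives one value for each pair and line, without errors, so small differences may be noise.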
This is part of the screen, not chosen by result.
A dash means that no value is listed here.

Pair,A375,A101D,C32,A2058,501mel
IMD-0354 + BI-D1870,-,88.5,103,90.8,74.5
BI-D1870 + KU-55933,112,96.4,85.5,111,95.7
GSK0660 + tozasertib,-,89.2,67.4,90.8,91.8
GSK0660 + IMD-0354,-,98.7,89.8,110,110
vismodegib + L-779450,-,105,89.0,94.0,69.0
IMD-0354 + KU-55933,-,111,90.3,99.9,107
AS-252424 + KU-55933,116,133,104,102,92.5
GSK0660 + AS-252424,106,110,99.2,96.0,136
AS-252424 + IMD-0354,-,86.7,99.4,108,98.8
tozasertib + L-779450,-,85.3,91.2,99.5,82.6
KU-55933 + vismodegib,-,92.3,102,111,98.2
GSK0660 + BI-D1870,77.1,95.5,85.7,88.2,104
L-779450 + AS-252424,51.1,83.6,87.1,99.3,77.1
vismodegib + GSK0660,-,105,100,93.4,109
BI-D1870 + tozasertib,-,94.3,109,97.4,-
KU-55933 + L-779450,80.4,97.1,84.4,99.0,72.8
tozasertib + AS-252424,-,91.6,96.2,90.5,90.9
vismodegib + AS-252424,-,100,92.8,91.8,112
BI-D1870 + vismodegib,-,90.0,107,102,111
BI-D1870 + L-779450,59.4,86.7,85.3,89.4,59.8

For reference, 2 entries once more:

| Pair | A375 | A101D | C32 | A2058 | 501mel |
|---|---|---|---|---|---|
| IMD-0354 + KU-55933 | - | 111 | 90.3 | 99.9 | 107 |
| GSK0660 + BI-D1870 | 77.1 | 95.5 | 85.7 | 88.2 | 104 |

Source: doi:10.1371/journal.pone.0140310, primary screening data, rounded.